Results as given in publication PMC6885518.
These are yes or no findings as the source states them, for the method shown. Binding seen in cells or lysates may run through a third protein. Some binding calls cover weakened binding; strength is not graded here.

By UniProt entry, the sequences of proteins in these tests, tags left out. Residues count along the entry.
UniProt Q01097, residues 27-1482: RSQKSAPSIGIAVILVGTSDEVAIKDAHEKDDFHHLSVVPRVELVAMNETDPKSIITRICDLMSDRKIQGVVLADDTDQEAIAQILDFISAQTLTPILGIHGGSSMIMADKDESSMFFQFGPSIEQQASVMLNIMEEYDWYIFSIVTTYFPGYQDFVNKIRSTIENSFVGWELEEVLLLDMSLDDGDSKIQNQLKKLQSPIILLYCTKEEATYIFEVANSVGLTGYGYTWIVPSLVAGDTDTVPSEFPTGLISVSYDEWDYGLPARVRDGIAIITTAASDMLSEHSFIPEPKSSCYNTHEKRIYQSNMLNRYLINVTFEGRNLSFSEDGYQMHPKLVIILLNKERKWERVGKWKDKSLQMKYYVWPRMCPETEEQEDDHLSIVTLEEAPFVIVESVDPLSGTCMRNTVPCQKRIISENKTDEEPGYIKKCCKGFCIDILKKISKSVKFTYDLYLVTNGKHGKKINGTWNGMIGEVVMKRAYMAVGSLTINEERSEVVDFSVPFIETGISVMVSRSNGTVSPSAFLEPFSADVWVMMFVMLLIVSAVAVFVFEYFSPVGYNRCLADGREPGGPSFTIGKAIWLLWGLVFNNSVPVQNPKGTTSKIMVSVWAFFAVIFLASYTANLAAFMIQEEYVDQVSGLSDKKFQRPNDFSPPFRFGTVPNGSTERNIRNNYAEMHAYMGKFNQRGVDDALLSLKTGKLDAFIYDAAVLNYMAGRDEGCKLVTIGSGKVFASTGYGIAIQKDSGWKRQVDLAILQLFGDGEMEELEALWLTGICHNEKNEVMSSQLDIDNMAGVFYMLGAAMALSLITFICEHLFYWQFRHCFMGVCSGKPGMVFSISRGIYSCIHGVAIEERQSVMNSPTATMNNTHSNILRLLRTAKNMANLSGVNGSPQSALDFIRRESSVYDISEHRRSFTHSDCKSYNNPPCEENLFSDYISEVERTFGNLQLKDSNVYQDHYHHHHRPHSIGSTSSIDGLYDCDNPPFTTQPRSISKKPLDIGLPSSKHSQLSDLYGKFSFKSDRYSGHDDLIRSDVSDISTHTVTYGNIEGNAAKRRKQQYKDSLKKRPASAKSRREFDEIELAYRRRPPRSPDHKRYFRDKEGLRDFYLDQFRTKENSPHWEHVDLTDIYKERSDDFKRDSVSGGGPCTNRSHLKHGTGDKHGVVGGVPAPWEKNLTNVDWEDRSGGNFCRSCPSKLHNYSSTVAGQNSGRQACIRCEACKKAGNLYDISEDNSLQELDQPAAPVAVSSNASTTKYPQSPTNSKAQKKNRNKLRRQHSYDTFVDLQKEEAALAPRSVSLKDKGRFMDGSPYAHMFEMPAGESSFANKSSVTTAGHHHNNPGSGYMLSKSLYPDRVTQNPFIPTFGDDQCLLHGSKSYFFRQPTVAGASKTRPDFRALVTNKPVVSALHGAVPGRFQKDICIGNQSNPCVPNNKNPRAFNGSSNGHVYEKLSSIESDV
UniProt Q62083: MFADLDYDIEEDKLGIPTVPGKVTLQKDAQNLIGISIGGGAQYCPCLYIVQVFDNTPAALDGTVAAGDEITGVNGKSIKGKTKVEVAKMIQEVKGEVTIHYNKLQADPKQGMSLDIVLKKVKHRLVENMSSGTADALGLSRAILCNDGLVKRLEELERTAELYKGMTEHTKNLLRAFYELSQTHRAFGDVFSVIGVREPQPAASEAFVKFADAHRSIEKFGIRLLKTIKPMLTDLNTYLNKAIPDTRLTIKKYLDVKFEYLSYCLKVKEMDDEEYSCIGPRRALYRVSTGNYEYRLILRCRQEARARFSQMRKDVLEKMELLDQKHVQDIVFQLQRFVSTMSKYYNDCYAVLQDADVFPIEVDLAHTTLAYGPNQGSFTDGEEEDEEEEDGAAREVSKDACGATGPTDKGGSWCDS

How the values were obtained:
[1] = target: N-methyl D-aspartate receptor subtype 2B (NR2B), wild type, Flag-tagged (UniProt Q01097); assay: co-IP; HEK293T cells co-transfected with NR2B-Flag (WT, S2A or S2E), PKCα-HA and PICK1-Myc, lysed 36 h after transfection (50 mM Tris-HCl pH 7.4, 1% Triton X-100, 1 mM EDTA, 10 mM NaF, 1 mM Na3VO4); IP with mouse anti-DDDDK, anti-HA or anti-Myc antibody or control IgG, 6 h at 4 °C, protein A/G agarose overnight; blots with rabbit anti-tag antibodies
[2] = target: protein interacting with C kinase 1 (PICK1), Myc-tagged (UniProt Q62083); assay: as above

protein interacting with C kinase 1 (PICK1), Myc-tagged (from UniProt Q62083 1-416)
binding [1]: binds

protein kinase Cα (PKCα), HA-tagged (from UniProt P20444 1-672) (enzyme)
binding [2]: binds
